{
  "source": "patent US8143221B2",
  "about": "“Use of ADNF polypeptides for treating peripheral neurotoxicity” (Ramot at Tel-Aviv University, priority 2005, dated 2012)",
  "key": {"[1]": {"system": "peripheral neurotoxicity under chemotherapy including L-OHP, FA/5-FU", "test": "Randomized trial with or without NAP under chemotherapy with oxaliplatin (L-OHP), FA/5-FU", "type": "in vivo", "conditions": "patients with ACRC, NAP 15 mg/45-70 kg i.v. over 10 min before L-OHP", "description": "Aim of the study: Chemotherapy with L-OHP, FA, 5-FU has a high activity in advanced colorectal cancer (ACRC). The main dose-limiting toxicity of chemotherapy with L-OHP is a peripheral sensory neuropathy. In this study the patients (pts) will receive a chemotherapy with L-OHP, FA and 5-FU with or without NAP. The question is whether a reduction of side effects of neurotoxicity is seen after application of NAP.\nWe include 27 patients with ACRC. In arm A chemotherapy is applied with L-OHP 85 mg/m2 d1, FA 500 mg/m2 d1+d2 and 5-FU 4000 mg/m2 over 48 h continuous infusion as biweekly schedule. In arm B, 15 mg/45-70 kg NAP is given over 10 min i.v. before application of the same schedule of chemotherapy. Investigation of toxicity, neurological examination and a blood count is performed before every cycle. For a daily documentation of the side effects every patient receives a questionnaire."}, "[2]": {"system": "peripheral neurotoxicity induced by the taxane taxol", "test": "Rota-rod test in taxol-treated rats"}, "closed head injury": {"system": "closed head injury", "conditions": "mice; cited from earlier work"}, "ischemic injury": {"system": "ischemic injury", "conditions": "after ischemic injury; cited from earlier work"}, "[3]": {"system": "peripheral neurotoxicity induced by the vinca alkaloid vincristine", "test": "Olfactory discrimination test in vincristine-treated rats", "type": "in vivo", "description": "Treatments took place daily (5 days a week) for ˜3 weeks (20 days) with the dosage calculated on daily body weight. NAP was administered subcutaneously at the same time as the vincristine was administered intraperitoneally, in the dosage and the amount indicated in the schedule above. After a week cessation of treatment a final boost of vincristine was given i.p. daily for three days and NAP at 25 microgram/kg was given intranasally to group number 4 only. The intranasal formulation followed the previous experiment (Alcalay et al., infra). An olfactory discrimination test was performed on each of the three days of NAP treatment during the final boost period. (Macknin et al., Brain Res. 1000, 174-78 (2004)) The odors tested were 1) Deionized water (ddw) and 2) Scented extracts, i.e., vanilla/almond.\nOverall the experiment included 3 odors (water and two scented extracts) each encompassing 3 trials of 2 minutes. New dipped tip was introduced at the beginning of each trial for the different scents.\nThirty minutes before the testing the subjects were housed in separate cages and a cotton tip dipped in water was placed hanging into the cage. During these 30 minutes the animal was acclimatized to the tip and the cage. Thereafter, the cotton tip was dipped in the desired scent and placed hanging from the top of the cage. […]"}, "[4]": {"system": "peripheral neurotoxicity induced by the taxane taxol", "test": "Plantar test (thermal hyperalgesia) in taxol-treated rats"}, "[5]": {"system": "peripheral neurotoxicity induced by the vinca alkaloid vincristine", "test": "Rota-rod test in vincristine-treated rats", "type": "in vivo", "description": "(§1) Rats (200-300 g), divided into 4 groups of 10, were injected with vincristine sulfate dissolved in saline. Stock concentration was 2 mg/ml, pH 4.5-5.2. Aliquots of the drug were diluted daily in saline to concentrations of 0.175 mg/ml and were administered i.p. at a dose of 0.175 mg/kg. NAP was prepared at 0.1 mg/1.3 ml in saline (0.9% NaCl) and about 0.1 ml was injected subcutaneously to a ˜300 g rat to achieve a dose of 25 microgram/kg (exact calculations were made based on the daily body weights). For 2.5 microgram/kg, the injection solution was diluted by 10 and again 0.1 ml was injected per rat. Treatments took place daily (5 days a week) for ˜3 weeks (20 days) with the dosage calculated on daily body weight. NAP was administered at the same time as the vincristine, in the dosage and the amount where indicated the following schedule.\n(§2) Four groups were evaluated: 1) Control, saline (n=10), 2) Vincristine (i.p.) 0.175 mg/kg (n=10), 3) Vincristine (i.p.) 0.175 mg/kg+NAP (s.c.) 2.5 microgram/kg (n=10), and 4) Vincristine (i.p.) 0.175 mg/kg+NAP (s.c.) 25 microgram/kg (n=10).\nAfter a week cessation of treatment, a final boost of vincristine was given i.p. daily for three days and NAP at 25 microgram/kg was given intranasally to group number 4 only. […] For behavioral testing baseline toxin effects were evaluated 2-23 days following the first injection, using the testing procedures below: […]"}, "[6]": {"system": "peripheral neurotoxicity induced by the vinca alkaloid vincristine", "test": "Motor evaluation: ability to exit a circle 30 cm in diameter within 20 seconds, vincristine-treated rats", "type": "in vivo", "description": "as §1, §2\nMotor examination was performed on days 6, 9, 13 and 24 after the initiation of the vincristine injections. Rats were examined after vincristine injection, with the use of a motor disability scale. […]\nAnimals were assessed based on their failure to walk out of a circle 30 cm in diameter within 20 seconds."}, "normal aging rats": {"system": "normal aging rats", "conditions": "intranasal administration; cited from earlier work"}, "tubulin": {"system": "tubulin", "conditions": "cited from earlier work"}, "[7]": {"system": "cells of the central nervous system (CNS)", "conditions": "cited from earlier work"}, "tau": {"system": "tau", "conditions": "in the presence of NAP; cited from earlier work"}, "anxiety": {"system": "anxiety", "conditions": "mice, long term nasal application; cited from earlier work"}, "neurite outgrowth": {"system": "neurite outgrowth", "conditions": "in the presence of NAP; cited from earlier work"}, "[8]": {"system": "Alzheimer's disease pathology", "conditions": "animal models; cited from earlier work"}, "astrocytes and neurons": {"system": "astrocytes and neurons", "conditions": "cited from earlier work"}, "fetal alcohol syndrome": {"system": "fetal alcohol syndrome", "conditions": "model of fetal alcohol syndrome; cited from earlier work"}},
  "note": "“Also recorded” adds a separate entry of the source. Part of at least one peptide drawing is inferred or uncertain, most often the ends.",
  "data": [
    {"molecule": "CC[C@H](C)[C@H](NC(=O)[C@H](CO)NC(=O)[C@@H](NC(=O)[C@@H]1CCCN1C(=O)[C@H](C)NC(=O)[C@@H](N)CC(N)=O)C(C)C)C(=O)N1CCC[C@H]1C(=O)N[C@@H](CCC(N)=O)C(=O)O", "note": "[NAP, Asn-Ala-Pro-Val-Ser-Ile-Pro-Gln]", "values": [
      {"measurement": "Peripheral neurotoxicity", "setting": "[1]", "value": "significant reduction of peripheral neurotoxicity"},
      {"measurement": "Rota-rod performance", "setting": "[2]; Experiment 1: rats, taxol cumulative 5.6 mg/kg i.p. + NAP 2.5 or 25 μg/kg/day", "value": "did not show statistically significant differences between groups"},
      {"measurement": "Rota-rod performance (neuromuscular function)", "setting": "[2]; Experiment 2: rats, taxol cumulative 9 mg/kg i.p. + NAP 2.5 μg/kg/day, five days after first taxol injection, p<0.04", "value": "The neuromuscular effect was ameliorated; also recorded: perform better than taxol treated alone"},
      {"measurement": "Damage caused by closed head injury", "setting": "closed head injury", "value": "reducing damage caused by closed head injury"},
      {"measurement": "Infarct volume and motor function deficits", "setting": "ischemic injury", "value": "reduced infarct volume and motor function deficits"},
      {"measurement": "Time spent with new odors: olfaction capacity", "setting": "[3]; rats, vincristine boost + NAP 25 microgram/kg intranasally (group 4)", "value": "a trend toward increased interest toward a new odor"},
      {"measurement": "Odor discrimination: time taken to sniff the third odor", "setting": "[3]; vincristine + 25 microgram/kg NAP rats (group 4) vs vincristine-treated rats (group 2), P<0.05", "value": "significant difference in the time taken to sniff the third odor"},
      {"measurement": "Plantar test: thermal hyperalgesia (withdrawal latency)", "setting": "[4]; Experiment 1: rats, taxol cumulative 5.6 mg/kg i.p. + NAP 2.5 μg/kg/day, p<0.01", "value": "ameliorated; also recorded: perform better than taxol treated alone"},
      {"measurement": "Plantar test: thermal hyperalgesia (withdrawal latency)", "setting": "[4]; Experiment 1: rats, taxol cumulative 5.6 mg/kg i.p. + NAP 25 ug/kg", "value": "did not affect the plantar test"},
      {"measurement": "Plantar test: thermal hyperalgesia (withdrawal latency)", "setting": "[4]; Experiment 2: rats, taxol cumulative 9 mg/kg i.p. + NAP 2.5 μg/kg/day, p<0.04, one tail t-test", "value": "The hyperalgesia was ameliorated; also recorded: perform better than taxol treated alone"},
      {"measurement": "Rota-rod performance (time spent on the rota-rod without falling)", "setting": "[5]; vincristine 0.175 mg/kg i.p. + NAP 2.5 microgram/kg s.c. (group 3), days 3, 8, 15, 23 summed, vs vincristine alone, p<0.01", "value": "significantly improved the performance similar to control values; also recorded: perform better than vincristine treated alone"},
      {"measurement": "Rota-rod performance (time spent on the rota-rod without falling)", "setting": "[5]; vincristine 0.175 mg/kg i.p. + NAP 25 micrograms/kg s.c. (group 4)", "value": "no significant difference from animals treated with vincristine treated alone"},
      {"measurement": "Ability to exit a circle 30 cm in diameter within 20 seconds", "setting": "[6]; vincristine 0.175 mg/kg i.p. + NAP 2.5 micrograms/kg (group 3)", "value": "no significant difference from animals treated with vincristine alone"},
      {"measurement": "Ability to exit a circle 30 cm in diameter within 20 seconds", "setting": "[6]; vincristine 0.175 mg/kg i.p. + NAP 25 microgram/kg (group 4), days 6, 9, 13, 24, P<0.01", "value": "significantly improved the performance similar to control values"},
      {"measurement": "Performance in the Morris water maze", "setting": "normal aging rats", "value": "improved performance in the Morris water maze"},
      {"measurement": "Interaction with tubulin", "setting": "tubulin", "value": "interacts with tubulin; also recorded: tubulin was identified as a NAP binding molecule"},
      {"measurement": "Neuroprotective activity in cell cultures", "setting": "[7]", "value": "neuroprotective activity on cells of the central nervous system (CNS) at femtomolar concentrations"},
      {"measurement": "Ratio of non-phosphorylated tau to phosphorylated tau", "setting": "tau", "value": "increase in the ratio of non-phosphorylated tau to phosphorylated tau"},
      {"measurement": "Anxiety", "setting": "anxiety", "value": "decreased anxiety"},
      {"measurement": "Neurite outgrowth", "setting": "neurite outgrowth", "value": "increased neurite outgrowth"},
      {"measurement": "Protection in Alzheimer's disease models", "setting": "[8]", "value": "protective"},
      {"measurement": "Protection from zinc toxicity (microtubule breakdown)", "setting": "astrocytes and neurons", "value": "protects these cells from this toxicity"},
      {"measurement": "Fetal demise and growth restrictions", "setting": "fetal alcohol syndrome", "value": "reducing fetal demise and growth restrictions"}
    ]}
  ]
}
